# Measurements published in paper PMC7819943, “Rice protein-binding microarrays: a tool to detect cis-acting elements near promoter regions in rice”.
# Sequences of proteins named here, by UniProt entry; tags and fusion partners are left off.
# UniProt Q0JBA9, entry or part of it: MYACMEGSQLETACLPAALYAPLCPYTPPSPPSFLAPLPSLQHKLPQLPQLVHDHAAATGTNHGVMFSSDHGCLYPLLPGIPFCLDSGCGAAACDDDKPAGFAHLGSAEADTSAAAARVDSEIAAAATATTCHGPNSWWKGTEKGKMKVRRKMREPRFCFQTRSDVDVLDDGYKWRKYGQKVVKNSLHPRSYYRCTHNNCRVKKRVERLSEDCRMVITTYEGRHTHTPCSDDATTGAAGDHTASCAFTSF
# This is one part of the list.
# Molecular target: OsWRKY34 (Oryza sativa, UniProt Q0JBA9 1-250)
# Assay: protein-binding microarray (RPBM); PBS, 2% BSA, 51.3 ng/ul salmon testes DNA, 50 uM zinc acetate, 200 nM TF, 25 C, 1 h; high values mean tight binding
# Conditions: protein: recombinant; tags: N-terminal polyhistidine and DsRed monomer fusion (pET32a); label: CyDye5-dUTP incorporated in the synthesized complementary strand; 3' TTTTT single-stranded linker to array surface; dsDNA, one strand shown
# In short: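 The binding signal is fluorescence intensity per feature, in arbitrary units, read on an Axon 4000B scanner. Polyhistidine- and DsRed-tagged transcription factors (N-terminal fusions) from E. coli BL21-CodonPlus were purified on Ni–NTA and applied at 200 nM for 1 h at 25 °C to a double-stranded, BSA-blocked custom Agilent array in buffer with 50 µM zinc acetate.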
row,Sequence,binding signal
1,TACACTCCCTAGCGCAACTTGCAACTTTGCCAGCCATGGCCGGAGTCACCTAGTGCAG,10100 fluorescence intensity (a.u.)
2,CCTTCGCCTTCCTCGGCACCCTGCAGTTAGCCTTGTCCGCCGGAGTCACCTAGTGCAG,8830 fluorescence intensity (a.u.)
3,CATCCATCGTAATATGGGCCGGGCTTCTTTTGTGAATTTCCGGAGTCACCTAGTGCAG,11800 fluorescence intensity (a.u.)
4,AATCACTTGAAGTTTGACATTCCACCTCATAAGTTATTTTCGGAGTCACCTAGTGCAG,10500 fluorescence intensity (a.u.)
5,ATGACTTTAATATGTTAGCTTTTCATGCATGTGTCAATTTCGGAGTCACCTAGTGCAG,8700 fluorescence intensity (a.u.)
6,GGAGGGGAGGGGTGGCCCGGGACCGTTGCCCGTCTCGCAGCGGAGTCACCTAGTGCAG,11500 fluorescence intensity (a.u.)
7,TGTTGTTTGCTGTTGTTGCCTTGCTGCGCAAAGATTTGGTCGGAGTCACCTAGTGCAG,8050 fluorescence intensity (a.u.)
8,GGACCGTTGGATGGGTGCACGAAAAATGTTTGTACGGCTGCGGAGTCACCTAGTGCAG,9020 fluorescence intensity (a.u.)
9,TATACTCCCTCCATTTCAAAATGTTTGACACCGTTGACTTCGGAGTCACCTAGTGCAG,9590 fluorescence intensity (a.u.)
10,CAACCGCTCGAGCAAAGCCTCCAAAACCCTAGCGCTCTCTCGGAGTCACCTAGTGCAG,8300 fluorescence intensity (a.u.)
11,ATGTTGGTCCGTCAGTTACACTGGGCCTCTCTGCTGTGTTCGGAGTCACCTAGTGCAG,8920 fluorescence intensity (a.u.)
12,AGGCCATCTTTGTGCACGAAACTCTGCTGATCGGGCCAAACGGAGTCACCTAGTGCAG,9140 fluorescence intensity (a.u.)
13,ATCCTCATCCTCCGCCACCGCCGCCTGCGCCGATCCCCATCGGAGTCACCTAGTGCAG,9980 fluorescence intensity (a.u.)
14,CCTATTCCTTGTCACCACTGCCCAGCCCATACACGGCCCACGGAGTCACCTAGTGCAG,11300 fluorescence intensity (a.u.)
15,AGCAAATTCCTTTATGTTTTTTCTTATGTCTTCTCCAGCTCGGAGTCACCTAGTGCAG,9040 fluorescence intensity (a.u.)
16,GGCATCAAAGTGAACAAGCCCTAAACCTTATACTATCTTCCGGAGTCACCTAGTGCAG,8080 fluorescence intensity (a.u.)
17,AACTGACACCTTTGAAAAAAACCAAGCCGGCTTTTTTGACCGGAGTCACCTAGTGCAG,8200 fluorescence intensity (a.u.)
18,ATGTAATTTTCCGTGTCTATACTTATTTGGTCCAAGAAATCGGAGTCACCTAGTGCAG,9110 fluorescence intensity (a.u.)
19,CACTAGCTTCCTCTCTCCGCTCTGTAATCACATCAGTCCTCGGAGTCACCTAGTGCAG,9730 fluorescence intensity (a.u.)
20,TCACATCAACCTGTCATACACACACAACTTTTCAGTCATACGGAGTCACCTAGTGCAG,9390 fluorescence intensity (a.u.)
21,GACCAAGTCTTTCACACCATACTATCTCGGTCTCAACATACGGAGTCACCTAGTGCAG,9880 fluorescence intensity (a.u.)

# Part of the list above, as tab-separated lines:
row	Sequence	binding signal
15	AGCAAATTCCTTTATGTTTTTTCTTATGTCTTCTCCAGCTCGGAGTCACCTAGTGCAG	9040 fluorescence intensity (a.u.)
16	GGCATCAAAGTGAACAAGCCCTAAACCTTATACTATCTTCCGGAGTCACCTAGTGCAG	8080 fluorescence intensity (a.u.)
17	AACTGACACCTTTGAAAAAAACCAAGCCGGCTTTTTTGACCGGAGTCACCTAGTGCAG	8200 fluorescence intensity (a.u.)
18	ATGTAATTTTCCGTGTCTATACTTATTTGGTCCAAGAAATCGGAGTCACCTAGTGCAG	9110 fluorescence intensity (a.u.)
19	CACTAGCTTCCTCTCTCCGCTCTGTAATCACATCAGTCCTCGGAGTCACCTAGTGCAG	9730 fluorescence intensity (a.u.)
20	TCACATCAACCTGTCATACACACACAACTTTTCAGTCATACGGAGTCACCTAGTGCAG	9390 fluorescence intensity (a.u.)
21	GACCAAGTCTTTCACACCATACTATCTCGGTCTCAACATACGGAGTCACCTAGTGCAG	9880 fluorescence intensity (a.u.)

# (list continues)

row,Sequence,binding signal
1,CTCTCTCTGCTCGAGCCCGAGTAGCCCTCGTCGTCATTCTCGGAGTCACCTAGTGCAG,8950 fluorescence intensity (a.u.)
2,GCGACGTTCGTACGTTCTTCTCTATTGCTTTTCCGTTAATCGGAGTCACCTAGTGCAG,11600 fluorescence intensity (a.u.)
3,AGAGCAAACCCCATAACAAAATCCGATCTCCGGCAGTTTCCGGAGTCACCTAGTGCAG,8670 fluorescence intensity (a.u.)
4,CCTTCTGTTTTTTCCACCGTTGTCGCGGCGATCGCCATCGCGGAGTCACCTAGTGCAG,9150 fluorescence intensity (a.u.)
5,CCCTCCACCCGCGCCATCTCTGCCGCGCACCCCGCCTCTGCGGAGTCACCTAGTGCAG,11500 fluorescence intensity (a.u.)
6,TGGCCTTATGGTCTTTAAAGCACTGCACCTGTTGTTTCAGCGGAGTCACCTAGTGCAG,9460 fluorescence intensity (a.u.)
7,CAACTGTGTCGTATCGTACGTACTTTTGTAACGGCTTAATCGGAGTCACCTAGTGCAG,8860 fluorescence intensity (a.u.)
8,ACTACTTGTACCACCACACCGCGCGCTCATCATTAGCCTCCGGAGTCACCTAGTGCAG,9270 fluorescence intensity (a.u.)
9,GGCTTTTCTGCGGCTGCTTTGATCTATATGGGCCGTCAACCGGAGTCACCTAGTGCAG,9650 fluorescence intensity (a.u.)
10,TGTGCATTTGTTCTTAAACCGTTTATGGGCCTTTCTTTTTCGGAGTCACCTAGTGCAG,10300 fluorescence intensity (a.u.)
11,AGGGAGGGGAGGTGAACCAGCAGCCTGAGCAGGAGCGGCGCGGAGTCACCTAGTGCAG,8170 fluorescence intensity (a.u.)
12,CATCCCACTGACGCCGCCTTCGCCCGCCGCCTCCTCCGCGCGGAGTCACCTAGTGCAG,11100 fluorescence intensity (a.u.)
13,CGGCGCCGCAGGGCTCACTTACTCGCACTTATTCTGTTATCGGAGTCACCTAGTGCAG,11600 fluorescence intensity (a.u.)
14,AGATACACTGACTAACCATTTTGGCCATATACCTGCAAGCCGGAGTCACCTAGTGCAG,9490 fluorescence intensity (a.u.)
15,TGTGCGCGCGTCACGGTTTCCTTCCACGTCTCGTCGCTTCCGGAGTCACCTAGTGCAG,9140 fluorescence intensity (a.u.)
16,CAACGCCGCAGTACTTGCCATACCGGATCCCTACGGCTGCCGGAGTCACCTAGTGCAG,8290 fluorescence intensity (a.u.)
17,TCCCACGCTCACACCTGCCACTGCCCCACATCCCCGGGCCCGGAGTCACCTAGTGCAG,13900 fluorescence intensity (a.u.)
18,CTGGGTCTTACATCCTTCATACTTCATCTATCCTATAATTCGGAGTCACCTAGTGCAG,10200 fluorescence intensity (a.u.)
19,CGTCGAGCACCTTACATCGCCGCTGTCTGCCCCTGTCCTGCGGAGTCACCTAGTGCAG,9040 fluorescence intensity (a.u.)
20,TATCATTATCTCCCGCCTGCTAACCATCGTGTACACCATCCGGAGTCACCTAGTGCAG,9000 fluorescence intensity (a.u.)
21,TACAGTCGTAGATTTCCGCGTCCAATATTTGACCGTCCTTCGGAGTCACCTAGTGCAG,8530 fluorescence intensity (a.u.)
